# Measurements reported in PMC7980221 (Molecular Cell, 2021).
# The chains behind the UniProt entries cited, without tags or fusion partners. Where a name states a change or a piece, a line headed by the entry shows the natural chain unless it says otherwise.
# UniProt A0L5S6: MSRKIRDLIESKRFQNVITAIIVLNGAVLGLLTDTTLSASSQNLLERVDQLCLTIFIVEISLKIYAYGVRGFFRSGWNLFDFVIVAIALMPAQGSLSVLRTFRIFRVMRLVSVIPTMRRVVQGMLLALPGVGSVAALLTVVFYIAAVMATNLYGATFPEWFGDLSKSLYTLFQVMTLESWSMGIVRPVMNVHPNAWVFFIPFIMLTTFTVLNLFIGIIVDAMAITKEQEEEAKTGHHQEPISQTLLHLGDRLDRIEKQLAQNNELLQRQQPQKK
# Target: NavMs (Magnetococcus marinus, UniProt A0L5S6)
# Assay: cell-based
smiles,measurement,value
CC/C(=C(\c1ccccc1)c1ccc(OCCN(C)C)cc1)c1ccccc1 [Tamoxifen],IC50,830 nM
